Laboratory results from patent US20260126382A1, “INTELLIGENT NIR II PHOTOTHERMAL AND COLORIMETRIC SENSING TECHNOLOGY” (Nanyang Technological University, priority 2022, published 2026).

System: myrosinase (Myr)
Assay: Effect of interfering substances (metal ions, small molecules, amino acids, EDTA) on the Myr test system
Assay type: biochemical
Settings: for increase of temperature (ΔTemp) of Myr test system: 1064 nm laser 1 W/cm2, 5 min; for absorbance at 1064 nm of the Myr test system: added to system containing Sin, GOx, TMB and AuNPs (EDTA: after Cu^2+)
Method: For Myr detection, Sin (2.5 mM, 30 μL) and GOx (5 mg/mL, 10 μL, according to previous literature (Jiang, C. et al., RSC Adv. 2017, 7, 44463-44469)) were mixed with different concentrations of Myr first, and reacted at 37° C. for 30 min to generate H2O2. Then, an acetate buffer containing TMB and AuNPs was added into the aforementioned solution, incubated at 45° C. for 25 min, and cooled to room temperature. Afterward, the solution was used for the analysis of Myr enzyme activity.
For the anti-interference experiments discussed below, Sin (2.5 mM, 30 μL) and GOx (5 mg/mL, 10 μL) were mixed with different interfering substances first and reacted at 37° C. for 30 min. Then, acetate buffer containing TMB and AuNPs were added into the above solution, incubated at 45° C. for 25 min, and cooled to room temperature, and afterwards, the solution was used for photothermal and colorimetric analysis.

Row | SMILES | increase of temperature (ΔTemp) of Myr test system (Cu^2+ added to Sin+Myr+GOx+TMB+AuNPs, 22.1° C. without Cu^2+) [°C] | absorbance at 1064 nm of the Myr test system | increase of temperature (ΔTemp) of Myr test system (EDTA added to the system containing Cu^2+) [°C]
1 | [Cu+2] [Cu^2+] | 3.9 | declined dramatically | –
2 | O=C(O)CN(CCN(CC(=O)O)CC(=O)O)CC(=O)O [EDTA, ethylenediaminetetraacetic acid] | – | recovered significantly | 19
